Results are given in words; binding and its absence hold for the method and conditions named. For some of these results: In cells and extracts the contact can be indirect. Some binding calls cover weakened binding; strength is not graded here. For some of these results: Tags and fused reporters may be left off the sequences shown.

The chains behind the UniProt entries cited, without tags or fusion partners. Where a name states a change or a piece, a line headed by the entry shows the natural chain unless it says otherwise.
UniProt O43526: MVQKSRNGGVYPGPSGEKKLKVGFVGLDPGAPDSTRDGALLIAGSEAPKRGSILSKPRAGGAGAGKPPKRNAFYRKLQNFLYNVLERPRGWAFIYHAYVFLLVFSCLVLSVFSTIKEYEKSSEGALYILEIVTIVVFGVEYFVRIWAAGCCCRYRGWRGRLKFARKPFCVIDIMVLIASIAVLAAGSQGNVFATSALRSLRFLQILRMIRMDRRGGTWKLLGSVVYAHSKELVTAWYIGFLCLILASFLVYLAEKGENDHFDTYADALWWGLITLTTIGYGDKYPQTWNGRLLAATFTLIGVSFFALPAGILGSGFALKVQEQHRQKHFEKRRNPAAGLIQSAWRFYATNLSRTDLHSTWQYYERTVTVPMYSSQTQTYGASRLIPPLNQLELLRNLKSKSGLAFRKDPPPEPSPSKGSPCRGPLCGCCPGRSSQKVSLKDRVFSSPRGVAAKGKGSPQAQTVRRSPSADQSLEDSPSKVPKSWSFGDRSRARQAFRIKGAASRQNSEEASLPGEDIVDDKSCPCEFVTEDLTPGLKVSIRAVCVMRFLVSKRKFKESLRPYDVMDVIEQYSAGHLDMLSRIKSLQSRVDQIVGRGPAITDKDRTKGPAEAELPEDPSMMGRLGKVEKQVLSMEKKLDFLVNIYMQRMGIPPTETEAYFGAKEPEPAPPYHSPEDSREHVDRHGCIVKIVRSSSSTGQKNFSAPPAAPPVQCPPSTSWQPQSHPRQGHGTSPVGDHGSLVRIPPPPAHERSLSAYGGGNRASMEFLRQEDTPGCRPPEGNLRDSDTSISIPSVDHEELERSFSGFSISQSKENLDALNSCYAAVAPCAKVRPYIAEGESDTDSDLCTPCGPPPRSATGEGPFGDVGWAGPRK
UniProt O88944: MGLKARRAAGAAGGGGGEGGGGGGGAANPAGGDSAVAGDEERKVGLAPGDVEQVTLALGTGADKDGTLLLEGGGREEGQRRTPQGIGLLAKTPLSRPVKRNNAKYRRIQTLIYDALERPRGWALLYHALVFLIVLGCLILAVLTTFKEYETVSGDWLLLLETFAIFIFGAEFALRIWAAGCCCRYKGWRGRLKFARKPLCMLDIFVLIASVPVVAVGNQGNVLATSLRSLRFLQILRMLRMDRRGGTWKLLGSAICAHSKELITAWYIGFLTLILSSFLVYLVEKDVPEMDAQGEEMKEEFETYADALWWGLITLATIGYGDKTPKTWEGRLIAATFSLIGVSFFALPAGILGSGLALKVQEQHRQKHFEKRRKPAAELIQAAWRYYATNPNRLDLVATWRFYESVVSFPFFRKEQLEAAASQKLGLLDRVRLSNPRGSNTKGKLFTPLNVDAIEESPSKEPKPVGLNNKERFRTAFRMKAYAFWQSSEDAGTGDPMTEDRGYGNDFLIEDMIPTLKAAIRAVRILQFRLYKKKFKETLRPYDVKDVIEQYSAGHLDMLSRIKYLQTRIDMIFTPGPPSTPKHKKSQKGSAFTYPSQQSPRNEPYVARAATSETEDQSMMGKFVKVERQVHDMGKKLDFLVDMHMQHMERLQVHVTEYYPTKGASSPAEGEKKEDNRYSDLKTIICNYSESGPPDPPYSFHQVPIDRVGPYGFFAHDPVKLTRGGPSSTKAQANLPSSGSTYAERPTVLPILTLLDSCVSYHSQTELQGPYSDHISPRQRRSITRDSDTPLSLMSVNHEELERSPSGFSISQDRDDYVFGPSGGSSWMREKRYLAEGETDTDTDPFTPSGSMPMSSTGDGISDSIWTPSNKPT
UniProt Q00975: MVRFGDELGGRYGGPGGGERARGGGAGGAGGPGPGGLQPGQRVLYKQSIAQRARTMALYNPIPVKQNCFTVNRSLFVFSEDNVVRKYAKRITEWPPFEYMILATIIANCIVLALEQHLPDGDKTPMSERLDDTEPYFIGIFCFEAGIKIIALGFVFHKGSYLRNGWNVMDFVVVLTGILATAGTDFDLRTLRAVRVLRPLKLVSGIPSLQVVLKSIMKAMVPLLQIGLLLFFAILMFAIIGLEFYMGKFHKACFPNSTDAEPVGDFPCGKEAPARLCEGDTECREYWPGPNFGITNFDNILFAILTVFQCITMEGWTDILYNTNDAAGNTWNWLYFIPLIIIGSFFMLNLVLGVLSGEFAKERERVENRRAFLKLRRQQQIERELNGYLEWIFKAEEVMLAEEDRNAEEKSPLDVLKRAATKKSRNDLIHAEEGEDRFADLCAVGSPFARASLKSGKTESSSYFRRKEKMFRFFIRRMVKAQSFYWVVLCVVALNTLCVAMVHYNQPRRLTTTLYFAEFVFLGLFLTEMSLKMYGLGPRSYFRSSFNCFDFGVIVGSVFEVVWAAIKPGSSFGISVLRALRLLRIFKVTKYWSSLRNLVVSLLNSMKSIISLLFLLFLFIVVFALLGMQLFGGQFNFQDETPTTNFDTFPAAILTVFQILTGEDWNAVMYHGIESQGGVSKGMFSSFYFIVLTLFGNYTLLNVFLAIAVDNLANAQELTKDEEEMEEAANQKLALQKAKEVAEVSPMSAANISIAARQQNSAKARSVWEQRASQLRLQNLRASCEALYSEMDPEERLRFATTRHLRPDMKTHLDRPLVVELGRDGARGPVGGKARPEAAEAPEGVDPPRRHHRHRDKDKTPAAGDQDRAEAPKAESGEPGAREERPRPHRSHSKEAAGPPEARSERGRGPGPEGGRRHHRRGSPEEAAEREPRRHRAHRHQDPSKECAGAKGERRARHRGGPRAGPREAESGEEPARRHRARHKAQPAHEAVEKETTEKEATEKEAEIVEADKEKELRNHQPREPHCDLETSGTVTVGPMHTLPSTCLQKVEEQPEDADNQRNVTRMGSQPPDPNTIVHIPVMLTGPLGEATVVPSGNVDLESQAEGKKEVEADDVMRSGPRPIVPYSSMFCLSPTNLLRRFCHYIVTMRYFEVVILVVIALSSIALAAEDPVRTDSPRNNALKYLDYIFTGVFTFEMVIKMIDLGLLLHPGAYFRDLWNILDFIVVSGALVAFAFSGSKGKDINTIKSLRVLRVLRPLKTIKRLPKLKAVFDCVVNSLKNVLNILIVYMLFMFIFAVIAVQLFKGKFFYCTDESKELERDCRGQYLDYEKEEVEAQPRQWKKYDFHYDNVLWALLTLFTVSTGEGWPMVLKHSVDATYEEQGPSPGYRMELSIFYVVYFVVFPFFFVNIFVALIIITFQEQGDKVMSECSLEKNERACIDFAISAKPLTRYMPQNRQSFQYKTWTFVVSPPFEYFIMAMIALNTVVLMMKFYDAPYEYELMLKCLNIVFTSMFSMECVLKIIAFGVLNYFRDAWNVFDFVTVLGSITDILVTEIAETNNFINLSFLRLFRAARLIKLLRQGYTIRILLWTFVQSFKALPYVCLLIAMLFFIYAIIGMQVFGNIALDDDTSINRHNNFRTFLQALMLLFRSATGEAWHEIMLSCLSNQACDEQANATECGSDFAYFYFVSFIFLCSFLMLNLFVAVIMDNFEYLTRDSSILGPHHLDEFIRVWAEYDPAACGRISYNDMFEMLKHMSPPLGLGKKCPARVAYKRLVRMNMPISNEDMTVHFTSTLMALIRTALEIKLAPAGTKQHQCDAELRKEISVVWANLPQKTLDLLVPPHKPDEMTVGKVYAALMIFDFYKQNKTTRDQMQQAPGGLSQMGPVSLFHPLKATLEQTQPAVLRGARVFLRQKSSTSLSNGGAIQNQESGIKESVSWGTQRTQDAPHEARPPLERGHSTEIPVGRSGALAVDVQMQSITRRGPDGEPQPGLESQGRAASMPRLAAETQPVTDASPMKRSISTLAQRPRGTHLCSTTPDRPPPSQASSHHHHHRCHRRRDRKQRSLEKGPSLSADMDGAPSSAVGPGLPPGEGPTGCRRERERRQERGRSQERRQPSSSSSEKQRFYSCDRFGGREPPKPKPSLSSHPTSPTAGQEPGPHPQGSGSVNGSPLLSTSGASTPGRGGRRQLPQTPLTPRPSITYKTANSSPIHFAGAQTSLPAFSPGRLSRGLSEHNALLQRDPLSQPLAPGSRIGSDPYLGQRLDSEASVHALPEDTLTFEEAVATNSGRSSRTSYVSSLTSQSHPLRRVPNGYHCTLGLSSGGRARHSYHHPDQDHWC
UniProt P13806: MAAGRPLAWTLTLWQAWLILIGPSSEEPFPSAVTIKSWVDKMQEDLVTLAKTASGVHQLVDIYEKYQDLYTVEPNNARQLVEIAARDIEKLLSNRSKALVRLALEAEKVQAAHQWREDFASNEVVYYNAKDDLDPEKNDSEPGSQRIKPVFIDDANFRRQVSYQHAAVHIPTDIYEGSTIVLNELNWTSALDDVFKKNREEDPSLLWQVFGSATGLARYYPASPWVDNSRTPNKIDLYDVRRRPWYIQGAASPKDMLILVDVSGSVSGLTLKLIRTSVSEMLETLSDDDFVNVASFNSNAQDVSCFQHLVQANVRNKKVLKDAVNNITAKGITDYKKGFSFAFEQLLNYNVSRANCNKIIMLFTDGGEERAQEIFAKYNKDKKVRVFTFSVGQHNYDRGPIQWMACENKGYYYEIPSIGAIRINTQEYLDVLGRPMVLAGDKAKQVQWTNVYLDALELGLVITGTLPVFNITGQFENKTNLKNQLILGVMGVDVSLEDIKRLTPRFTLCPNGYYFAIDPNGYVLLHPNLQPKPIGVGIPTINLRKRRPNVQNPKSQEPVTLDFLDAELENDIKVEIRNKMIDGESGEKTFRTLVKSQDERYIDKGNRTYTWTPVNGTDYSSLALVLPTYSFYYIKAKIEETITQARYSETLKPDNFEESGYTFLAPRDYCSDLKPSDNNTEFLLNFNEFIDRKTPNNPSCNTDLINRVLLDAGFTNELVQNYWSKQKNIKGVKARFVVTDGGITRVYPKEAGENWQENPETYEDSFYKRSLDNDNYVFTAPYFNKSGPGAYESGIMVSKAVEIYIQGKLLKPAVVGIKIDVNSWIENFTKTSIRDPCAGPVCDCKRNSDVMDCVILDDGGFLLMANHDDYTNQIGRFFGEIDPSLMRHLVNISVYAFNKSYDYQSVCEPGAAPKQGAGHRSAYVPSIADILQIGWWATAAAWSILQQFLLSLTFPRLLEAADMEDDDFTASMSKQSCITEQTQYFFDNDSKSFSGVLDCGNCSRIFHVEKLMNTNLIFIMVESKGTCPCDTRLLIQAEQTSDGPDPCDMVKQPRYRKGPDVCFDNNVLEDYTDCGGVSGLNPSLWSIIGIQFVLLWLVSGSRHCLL
UniProt Q9EPX4: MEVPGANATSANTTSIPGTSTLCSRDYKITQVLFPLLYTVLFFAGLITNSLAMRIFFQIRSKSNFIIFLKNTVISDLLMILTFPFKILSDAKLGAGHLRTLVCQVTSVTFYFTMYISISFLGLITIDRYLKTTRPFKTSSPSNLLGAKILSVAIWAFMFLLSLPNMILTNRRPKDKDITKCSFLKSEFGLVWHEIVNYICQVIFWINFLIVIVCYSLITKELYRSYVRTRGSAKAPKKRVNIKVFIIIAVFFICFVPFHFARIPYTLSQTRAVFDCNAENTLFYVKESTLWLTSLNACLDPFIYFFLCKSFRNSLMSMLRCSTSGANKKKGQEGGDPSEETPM

The target in test [1] is EYFP-tagged Kv7.2 (human) (UniProt O43526). Kind of test: FRET or BRET; epifluorescence three-filter FRET (normalized FRET, NFRET) between ECFP and EYFP fusion proteins in living tsA 201 cells 24 h after transfection; buffer NaCl 140, CaCl2 2.5, MgCl2 2, KOH 3, glucose 20, HEPES 10 mM, pH 7.4. Background: Bioluminescence resonance energy transfer reports proximity on the nanometre scale.

Test [2] concerns the target T1, Kv7.2/7.3 heteromers in which Kv7.2 carried the EYFP tag (human | rat) (UniProt O43526+O88944). Kind of test: FRET or BRET; donor recovery after acceptor photobleaching (DRAP) in TIRF microscopy, FRET efficiency as percent increase in CFP emission after YFP photobleaching; living tsA 201 cells 48 h after transfection; penetration depth 80 nm; P2Y1 with Kv7 channels also in the presence of 10 μM ADP (no change).

Test [3] addresses T1, Kv7.2/7.3 heteromers in which Kv7.2 carried the EYFP tag (human | rat). Kind of test: FRET or BRET; epifluorescence three-filter FRET (normalized FRET, NFRET) between ECFP and EYFP fusion proteins in living tsA 201 cells 24 h after transfection; buffer NaCl 140, CaCl2 2.5, MgCl2 2, KOH 3, glucose 20, HEPES 10 mM, pH 7.4.
The target in test [4] is EYFP-tagged Cav2.2 channel (Cav2.2-EYFP coexpressed with accessory β3 and α2δ1 subunits) (human | rat | rabbit) (UniProt Q00975+P54287+P13806). Kind of test: fluorescence recovery after photobleaching (FRAP); FRAP in TIRF microscopy of YFP-tagged channels and CFP-tagged receptors expressed alone or together in tsA 201 cells; bleached spot of approximately 4 μm; recovery time constants compared; P2Y1 with Kv7 heteromers also with 10 μM ADP (unaffected).

Test [5] concerns the target T1, Kv7.2/7.3 heteromers in which Kv7.2 carried the EYFP tag (human | rat). The description is as above.
The target in a further test is T2, NTPDase1-EYFP (UniProt P97687).
T2 sequence: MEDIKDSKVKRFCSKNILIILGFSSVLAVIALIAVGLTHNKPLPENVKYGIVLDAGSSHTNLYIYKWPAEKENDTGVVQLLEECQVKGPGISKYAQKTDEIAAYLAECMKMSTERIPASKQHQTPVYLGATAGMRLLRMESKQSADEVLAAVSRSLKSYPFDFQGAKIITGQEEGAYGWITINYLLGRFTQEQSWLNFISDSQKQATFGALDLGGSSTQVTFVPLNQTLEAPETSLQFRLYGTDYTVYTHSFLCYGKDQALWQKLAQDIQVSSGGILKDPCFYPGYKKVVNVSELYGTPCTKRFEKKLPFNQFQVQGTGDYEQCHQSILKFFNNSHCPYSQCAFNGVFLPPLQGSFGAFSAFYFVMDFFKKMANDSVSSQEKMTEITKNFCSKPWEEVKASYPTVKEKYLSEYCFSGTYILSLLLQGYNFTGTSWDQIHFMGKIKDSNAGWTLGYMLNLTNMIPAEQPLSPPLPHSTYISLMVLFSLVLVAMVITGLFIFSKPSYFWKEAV
Kind of test: FRET or BRET; donor recovery after acceptor photobleaching (DRAP) in TIRF microscopy, FRET efficiency as percent increase in CFP emission after YFP photobleaching; living tsA 201 cells 48 h after transfection; penetration depth 80 nm; P2Y1 with Kv7 channels also in the presence of 10 μM ADP (no change).

Test [6] has as its target ECFP- and EYFP-labeled P2X2 subunits (UniProt P49653). Kind of test: FRET or BRET; epifluorescence three-filter FRET (normalized FRET, NFRET) between ECFP and EYFP fusion proteins in living tsA 201 cells 24 h after transfection; buffer NaCl 140, CaCl2 2.5, MgCl2 2, KOH 3, glucose 20, HEPES 10 mM, pH 7.4.

On to “ECFP-tagged Kv7.3 (from UniProt O88944 1-873)”, for which the binding entry in test [1] is on record as “binds”.
Consider “P2Y12 receptor carrying a C-terminal ECFP (from UniProt Q9EPX4 1-343)”, for which the binding entry in test [2] is “no binding”; in test [3], “no binding”; in test [4], “binds”; in test [5], “no binding”.

B1: ECFP- and EYFP-labeled P2X2 subunits (receptor, UniProt P49653 1-472)
chain: MVRRLARGCWSAFWDYETPKVIVVRNRRLGFVHRMVQLLILLYFVWYVFIVQKSYQDSETGPESSIITKVKGITMSEDKVWDVEEYVKPPEGGSVVSIITRIEVTPSQTLGTCPESMRVHSSTCHSDDDCIAGQLDMQGNGIRTGHCVPYYHGDSKTCEVSAWCPVEDGTSDNHFLGKMAPNFTILIKNSIHYPKFKFSKGNIASQKSDYLKHCTFDQDSDPYCPIFRLGFIVEKAGENFTELAHKGGVIGVIINWNCDLDLSESECNPKYSFRRLDPKYDPASSGYNFRFAKYYKINGTTTTRTLIKAYGIRIDVIVHGQAGKFSLIPTIINLATALTSIGVGSFLCDWILLTFMNKNKLYSHKKFDKVRTPKHPSSRWPVTLALVLGQIPPPPSHYSQDQPPSPPSGEGPTLGEGAELPLAVQSPRPCSISALTEQVVDTLGQHMGQRPPVPEPSQQDSTSTDPKGLAQL
For the molecule B1, the binding result is reported as “no binding” with NTPDase1-EYFP and “binds” in test [6].

Source of the values: PMC5023631.
